Assay results: publication PMC10940511
Results are given in words; binding and its absence hold for the method and conditions named. In cells and extracts the contact can be indirect. Some binding calls cover weakened binding; strength is not graded here. For some of these results: Sequences can lack the tags named with a protein. One block for each binder: values may come before it.

What was measured:
[1] = target: T1, TBK1, endogenous in MEF cells (mouse (endogenous in MEF)) (UniProt Q9WUN2); assay: co-IP; endogenous proteins in MEF cells (for TBK1-IRF3: NT CTRL MEFs), transfected with poly I:C (2.5 µg/mL) or ISD (2 µg/mL) for 3 h; control IgG or TBK1 immunoprecipitation; NP-40 lysis buffer, washes with 250 mM NaCl
T1 sequence: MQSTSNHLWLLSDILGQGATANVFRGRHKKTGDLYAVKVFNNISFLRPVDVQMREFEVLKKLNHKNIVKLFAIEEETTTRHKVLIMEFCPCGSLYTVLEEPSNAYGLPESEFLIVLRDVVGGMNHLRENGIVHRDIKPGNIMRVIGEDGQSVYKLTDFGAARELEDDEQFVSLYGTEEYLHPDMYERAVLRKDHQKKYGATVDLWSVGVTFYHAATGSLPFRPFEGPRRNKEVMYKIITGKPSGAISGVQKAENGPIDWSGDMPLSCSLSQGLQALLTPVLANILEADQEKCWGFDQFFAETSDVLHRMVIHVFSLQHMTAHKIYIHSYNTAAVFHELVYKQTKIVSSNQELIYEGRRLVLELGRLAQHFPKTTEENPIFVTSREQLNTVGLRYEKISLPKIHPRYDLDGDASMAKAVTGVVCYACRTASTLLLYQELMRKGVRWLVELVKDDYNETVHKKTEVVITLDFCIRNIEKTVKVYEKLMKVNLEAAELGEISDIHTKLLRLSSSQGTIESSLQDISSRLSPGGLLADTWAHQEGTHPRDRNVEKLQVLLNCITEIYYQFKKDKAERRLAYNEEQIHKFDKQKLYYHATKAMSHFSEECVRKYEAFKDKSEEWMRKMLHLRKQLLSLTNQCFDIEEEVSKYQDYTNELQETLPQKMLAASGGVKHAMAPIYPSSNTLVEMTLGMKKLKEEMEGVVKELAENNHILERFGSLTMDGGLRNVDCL

[2] = target: T2, FLAG-TBK1 (TANK binding kinase 1), Q9UHD2; assay: co-IP; tagged TRIM28 constructs and tagged TBK1 co-transfected in HEK 293T; NP-40 lysis buffer (50 mM Tris-Cl pH 7.4, 150 mM NaCl, 1 mM EDTA, 1% NP-40), pre-cleared lysates with antibody overnight at 4°C, protein A magnetic beads 4 h, washes with 250 mM NaCl; precipitating antibody not named for each …; conditions: remark: other sources report otherwise
T2 chain: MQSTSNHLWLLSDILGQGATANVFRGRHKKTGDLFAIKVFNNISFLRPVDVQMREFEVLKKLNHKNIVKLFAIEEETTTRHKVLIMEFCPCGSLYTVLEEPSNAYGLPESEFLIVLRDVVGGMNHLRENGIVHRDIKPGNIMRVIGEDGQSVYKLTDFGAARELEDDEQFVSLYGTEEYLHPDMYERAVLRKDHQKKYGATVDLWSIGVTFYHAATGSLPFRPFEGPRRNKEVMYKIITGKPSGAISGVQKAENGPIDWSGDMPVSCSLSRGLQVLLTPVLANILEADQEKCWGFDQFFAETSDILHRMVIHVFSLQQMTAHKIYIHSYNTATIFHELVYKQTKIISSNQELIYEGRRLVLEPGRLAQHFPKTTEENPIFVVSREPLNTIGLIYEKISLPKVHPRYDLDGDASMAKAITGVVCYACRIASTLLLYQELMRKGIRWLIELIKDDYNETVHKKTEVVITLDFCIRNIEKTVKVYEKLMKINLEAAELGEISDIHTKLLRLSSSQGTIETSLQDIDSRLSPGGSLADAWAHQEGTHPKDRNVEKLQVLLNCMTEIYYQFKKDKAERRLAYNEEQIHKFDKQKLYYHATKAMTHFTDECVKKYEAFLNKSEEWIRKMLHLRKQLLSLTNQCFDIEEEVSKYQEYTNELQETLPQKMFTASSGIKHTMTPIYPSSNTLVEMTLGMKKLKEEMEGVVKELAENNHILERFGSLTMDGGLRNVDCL

HA-TBK1, Q9UHD2 = target: T3, HA-TBK1, Q9UHD2; assay: as above; conditions: remark: other sources report otherwise
T3 chain: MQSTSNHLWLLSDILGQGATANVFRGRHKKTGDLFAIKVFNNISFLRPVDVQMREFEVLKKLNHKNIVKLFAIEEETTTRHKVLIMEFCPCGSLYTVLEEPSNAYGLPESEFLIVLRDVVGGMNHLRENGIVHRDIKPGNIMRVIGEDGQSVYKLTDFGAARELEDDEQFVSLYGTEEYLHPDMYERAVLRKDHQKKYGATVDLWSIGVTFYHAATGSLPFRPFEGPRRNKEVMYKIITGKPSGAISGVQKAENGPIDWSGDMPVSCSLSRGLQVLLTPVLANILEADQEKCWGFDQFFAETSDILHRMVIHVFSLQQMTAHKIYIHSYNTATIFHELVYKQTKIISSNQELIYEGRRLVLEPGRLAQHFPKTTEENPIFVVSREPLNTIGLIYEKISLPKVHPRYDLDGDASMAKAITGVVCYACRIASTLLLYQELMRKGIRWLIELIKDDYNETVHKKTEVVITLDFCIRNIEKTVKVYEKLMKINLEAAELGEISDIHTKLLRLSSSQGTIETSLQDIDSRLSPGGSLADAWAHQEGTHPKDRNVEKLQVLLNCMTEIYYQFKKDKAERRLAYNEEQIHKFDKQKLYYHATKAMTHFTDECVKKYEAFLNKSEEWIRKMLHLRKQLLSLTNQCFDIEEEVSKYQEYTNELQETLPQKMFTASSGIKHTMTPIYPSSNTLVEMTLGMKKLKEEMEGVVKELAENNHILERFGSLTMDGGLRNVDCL

Myc-TBK1 = target: T4, Myc-TBK1 (UniProt Q9UHD2); assay: co-IP; Myc-TBK1 and HA-IRF3 co-transfected in HEK 293T in the presence or absence of GFP-TRIM28; NP-40 lysis buffer, washes with 250 mM NaCl
T4 sequence: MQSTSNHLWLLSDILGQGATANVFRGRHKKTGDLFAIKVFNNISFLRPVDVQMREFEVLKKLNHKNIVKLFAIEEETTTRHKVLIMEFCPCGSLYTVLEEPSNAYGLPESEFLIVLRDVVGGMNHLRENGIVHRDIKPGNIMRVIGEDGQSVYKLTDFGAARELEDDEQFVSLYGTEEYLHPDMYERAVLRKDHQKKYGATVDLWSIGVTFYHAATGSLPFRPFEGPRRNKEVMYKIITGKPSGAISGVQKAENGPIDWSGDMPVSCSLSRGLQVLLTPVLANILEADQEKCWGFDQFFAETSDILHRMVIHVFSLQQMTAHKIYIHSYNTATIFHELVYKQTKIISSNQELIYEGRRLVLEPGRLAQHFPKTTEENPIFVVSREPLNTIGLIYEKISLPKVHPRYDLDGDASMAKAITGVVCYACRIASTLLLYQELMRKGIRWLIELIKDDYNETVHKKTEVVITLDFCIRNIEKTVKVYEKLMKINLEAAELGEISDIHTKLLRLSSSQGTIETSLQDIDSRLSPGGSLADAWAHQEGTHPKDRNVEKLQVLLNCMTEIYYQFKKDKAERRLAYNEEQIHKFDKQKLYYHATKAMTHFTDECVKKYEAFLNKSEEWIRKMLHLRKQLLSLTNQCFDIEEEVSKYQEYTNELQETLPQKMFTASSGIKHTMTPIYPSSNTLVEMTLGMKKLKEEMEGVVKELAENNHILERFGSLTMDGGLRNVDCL

B1: IRF3, endogenous in MEF cells (protein, UniProt P70671 1-419)
chain: METPKPRILPWLVSQLDLGQLEGVAWLDESRTRFRIPWKHGLRQDAQMADFGIFQAWAEASGAYTPGKDKPDVSTWKRNFRSALNRKEVLRLAADNSKDPYDPHKVYEFVTPGARDFVHLGASPDTNGKSSLPHSQENLPKLFDGLILGPLKDEGSSDLAIVSDPSQQLPSPNVNNFLNPAPQENPLKQLLAEEQWEFEVTAFYRGRQVFQQTLFCPGGLRLVGSTADMTLPWQPVTLPDPEGFLTDKLVKEYVGQVLKGLGNGLALWQAGQCLWAQRLGHSHAFWALGEELLPDSGRGPDGEVHKDKDGAVFDLRPFVADLIAFMEGSGHSPRYTLWFCMGEMWPQDQPWVKRLVMVKVVPTCLKELLEMAREGGASSLKTVDLHISNSQPISLTSDQYKAYLQDLVEDMDFQATGNI
binding [1]: binds

B2: HA-TRIM28 (tripartite motif containing 28), Q13263 1-835 (protein)
chain: MAASAAAASAAAASAASGSPGPGEGSAGGEKRSTAPSAAASASASAAASSPAGGGAEALELLEHCGVCRERLRPEREPRLLPCLHSACSACLGPAAPAAANSSGDGGAAGDGTVVDCPVCKQQCFSKDIVENYFMRDSGSKAATDAQDANQCCTSCEDNAPATSYCVECSEPLCETCVEAHQRVKYTKDHTVRSTGPAKSRDGERTVYCNVHKHEPLVLFCESCDTLTCRDCQLNAHKDHQYQFLEDAVRNQRKLLASLVKRLGDKHATLQKSTKEVRSSIRQVSDVQKRVQVDVKMAILQIMKELNKRGRVLVNDAQKVTEGQQERLERQHWTMTKIQKHQEHILRFASWALESDNNTALLLSKKLIYFQLHRALKMIVDPVEPHGEMKFQWDLNAWTKSAEAFGKIVAERPGTNSTGPAPMAPPRAPGPLSKQGSGSSQPMEVQEGYGFGSGDDPYSSAEPHVSGVKRSRSGEGEVSGLMRKVPRVSLERLDLDLTADSQPPVFKVFPGSTTEDYNLIVIERGAAAAATGQPGTAPAGTPGAPPLAGMAIVKEEETEAAIGAPPTATEGPETKPVLMALAEGPGAEGPRLASPSGSTSSGLEVVAPEGTSAPGGGPGTLDDSATICRVCQKPGDLVMCNQCEFCFHLDCHLPALQDVPGEEWSCSLCHVLPDLKEEDGSLSLDGADSTGVVAKLSPANQRKCERVLLALFCHEPCRPLHQLATDSTFSLDQPGGTLDLTLIRARLQEKLSPPYSSPQEFAQDVGRMFKQFNKLTEDKADVQSIIGLQRFFETRMNEAFGDTKFSAVLVEPPPMSLPGAGLSSQELSGGPGDGP
binding [2]: binds

The next lines start with the values.

binding (HA-TBK1, Q9UHD2): binds
B3: FLAG-TRIM28 full length (FL), Q13263 1-835 (protein)
chain: MAASAAAASAAAASAASGSPGPGEGSAGGEKRSTAPSAAASASASAAASSPAGGGAEALELLEHCGVCRERLRPEREPRLLPCLHSACSACLGPAAPAAANSSGDGGAAGDGTVVDCPVCKQQCFSKDIVENYFMRDSGSKAATDAQDANQCCTSCEDNAPATSYCVECSEPLCETCVEAHQRVKYTKDHTVRSTGPAKSRDGERTVYCNVHKHEPLVLFCESCDTLTCRDCQLNAHKDHQYQFLEDAVRNQRKLLASLVKRLGDKHATLQKSTKEVRSSIRQVSDVQKRVQVDVKMAILQIMKELNKRGRVLVNDAQKVTEGQQERLERQHWTMTKIQKHQEHILRFASWALESDNNTALLLSKKLIYFQLHRALKMIVDPVEPHGEMKFQWDLNAWTKSAEAFGKIVAERPGTNSTGPAPMAPPRAPGPLSKQGSGSSQPMEVQEGYGFGSGDDPYSSAEPHVSGVKRSRSGEGEVSGLMRKVPRVSLERLDLDLTADSQPPVFKVFPGSTTEDYNLIVIERGAAAAATGQPGTAPAGTPGAPPLAGMAIVKEEETEAAIGAPPTATEGPETKPVLMALAEGPGAEGPRLASPSGSTSSGLEVVAPEGTSAPGGGPGTLDDSATICRVCQKPGDLVMCNQCEFCFHLDCHLPALQDVPGEEWSCSLCHVLPDLKEEDGSLSLDGADSTGVVAKLSPANQRKCERVLLALFCHEPCRPLHQLATDSTFSLDQPGGTLDLTLIRARLQEKLSPPYSSPQEFAQDVGRMFKQFNKLTEDKADVQSIIGLQRFFETRMNEAFGDTKFSAVLVEPPPMSLPGAGLSSQELSGGPGDGP

binding (Myc-TBK1): binds
B4: HA-IRF3 (interferon regulatory factor 3) (protein, UniProt Q14653 1-427)
chain: MGTPKPRILPWLVSQLDLGQLEGVAWVNKSRTRFRIPWKHGLRQDAQQEDFGIFQAWAEATGAYVPGRDKPDLPTWKRNFRSALNRKEGLRLAEDRSKDPHDPHKIYEFVNSGVGDFSQPDTSPDTNGGGSTSDTQEDILDELLGNMVLAPLPDPGPPSLAVAPEPCPQPLRSPSLDNPTPFPNLGPSENPLKRLLVPGEEWEFEVTAFYRGRQVFQQTISCPEGLRLVGSEVGDRTLPGWPVTLPDPGMSLTDRGVMSYVRHVLSCLGGGLALWRAGQWLWAQRLGHCHTYWAVSEELLPNSGHGPDGEVPKDKEGGVFDLGPFIVDLITFTEGSGRSPRYALWFCVGESWPQDQPWTKRLVMVKVVPTCLRALVEMARVGGASSLENTVDLHISNSHPLSLTSDQYKAYLQDLVEGMDFQGPGES
